# Measurements reported in PubChem BioAssay AID1259308 (NCATS, 2017)
# Assay: 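Candidate targets for better recombinant protein yield in mammalian cells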 (primary screen)
# Cell system: human HEK293 embryonic kidney cells stably expressing firefly luciferase (HEK-CMV-Luc2-Hygro)
# Knock-down reagent: single siRNA against human genes, 0.8 pmol siRNA per well
# Time to read-out: 72 h
# Read-out: 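Reporter luminescence and viable-cell signal on separate replicate plates, given as percent of non-targeting control and median/MAD z-scores, plus per-cell luciferase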
# Reading the numbers: total luciferase, z-score and total luciferase, % of control: higher = more reporter protein produced; luciferase per cell, z-score: higher = more reporter output per viable cell; viable cells, % of control: higher = more viable cells
# Rule for the call: 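Active when the median/MAD z-score for overall luciferase is greater than 3; a gene was taken forward for validation with new siRNAs if at least two of its three siRNAs passed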
# Meaning of the calls: active = raised luciferase; inactive = no rise
# Shown is a random part of about 59,000 reagents tested. About 1,510 of all reagents (2.6%) were called active. 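Calls use total luciferase alone and ignore viability, so some active siRNAs may act by altering cell number.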 Reagents against one gene are numbered here.
Target gene,siRNA no.,"total luciferase, z-score","total luciferase, % of control","luciferase per cell, z-score","viable cells, % of control",Outcome
DTX2,1,-1.46,52.8,-1.55,88.9,inactive
DTX2,2,-1.88,44.5,-1.76,79.1,inactive
DTX2,3,-1.42,53.6,-0.0965,61.5,inactive
FBXO22,1,-1.29,56.2,-1.68,97.7,inactive
FBXO22,2,1.24,107,0.986,91.9,inactive
FBXO22,3,-0.421,73.5,-0.752,100,inactive
PTPN22,1,1.17,105,1.55,78.2,inactive
PTPN22,2,1.72,116,1.31,91.8,inactive
PTPN22,3,0.192,85.7,-0.188,101,inactive
LYSMD2,1,-0.0423,81,-0.524,104,inactive
LYSMD2,2,-1.64,49.3,-1.75,87.3,inactive
LYSMD2,3,-1.39,54.3,-1.1,81.1,inactive
GPR176,1,2.1,124,2.09,79.6,inactive
GPR176,2,0.178,85.4,-0.0478,96.7,inactive
GPR176,3,0.0106,82.1,-0.33,100,inactive
KCNG1,1,0.567,93.2,1.32,73.5,inactive
KCNG1,2,-0.495,72,-0.231,85.5,inactive
KCNG1,3,0.442,90.7,0.727,83.7,inactive

Limited to “total luciferase, z-score”, for 4 of the entries above:
GPR176 #2 = 0.178
GPR176 #3 = 0.0106
KCNG1 #1 = 0.567
KCNG1 #2 = -0.495

The results go on.
Target gene,siRNA no.,"total luciferase, z-score","total luciferase, % of control","luciferase per cell, z-score","viable cells, % of control",Outcome
LGI1,1,2.32,128,2.17,80.8,inactive
LGI1,2,0.494,91.7,0.194,97.4,inactive
LGI1,3,-0.284,76.2,0.244,79.9,inactive
PCDHGB3,1,4.47,171,2.8,91.2,active
PCDHGB3,2,0.391,89.7,0.227,94.4,inactive
PCDHGB3,3,-0.0428,81,-0.421,101,inactive
IL9R,1,-1.35,55.1,-1.6,93.8,inactive
IL9R,2,-0.233,77.3,-0.345,94.6,inactive
IL9R,3,0.822,98.2,1.38,76.4,inactive
SPIN3,1,0.183,85.5,0.236,89.8,inactive
SPIN3,2,-0.388,74.2,-0.46,93.6,inactive
SPIN3,3,0.668,95.2,0.283,98.7,inactive
BLVRA,1,-0.89,64.2,-1.34,102,inactive
BLVRA,2,-0.951,63,-1.23,97.2,inactive
BLVRA,3,0.614,94.1,-0.103,108,inactive
SECTM1,1,0.617,94.2,0.608,89.6,inactive
SECTM1,2,0.0798,83.5,0.0471,92.1,inactive
SECTM1,3,-2.25,37.2,-2.11,72.5,inactive
PLS1,1,-0.425,73.4,-0.672,98,inactive
PLS1,2,0.924,100,1.85,68.8,inactive
PLS1,3,0.874,99.3,-0.082,113,inactive
